We go through 2 molecules from article PMC12377818.

Assay [1] has as its target T1, PDHB (pyruvate dehydrogenase E1 subunit beta) (mouse (endogenous in testis)) (UniProt Q9D051).
T1 sequence: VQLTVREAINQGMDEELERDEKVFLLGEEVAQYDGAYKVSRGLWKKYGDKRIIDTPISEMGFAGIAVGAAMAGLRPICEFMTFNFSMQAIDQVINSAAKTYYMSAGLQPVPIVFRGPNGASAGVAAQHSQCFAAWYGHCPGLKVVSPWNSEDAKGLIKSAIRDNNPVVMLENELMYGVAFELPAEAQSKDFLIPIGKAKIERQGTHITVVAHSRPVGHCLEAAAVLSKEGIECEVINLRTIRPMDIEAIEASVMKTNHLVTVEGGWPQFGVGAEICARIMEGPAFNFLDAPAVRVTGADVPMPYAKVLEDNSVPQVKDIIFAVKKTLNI
In words: co-IP; IP with anti-PDHA2, anti-PDHA1 and anti-PDHB antibodies on Dynabeads Protein G from adult Pdha2+/- and Pdha2-/- testis lysates (NP40 lysis buffer, 1 h at 4°C), then western blot. In general terms: Immunoblotting shows a protein as a band on a membrane.

In assay [2] the target is T2, PDHA2 (pyruvate dehydrogenase E1 subunit alpha 2) (mouse (endogenous in testis)) (UniProt P35487).
T2 sequence: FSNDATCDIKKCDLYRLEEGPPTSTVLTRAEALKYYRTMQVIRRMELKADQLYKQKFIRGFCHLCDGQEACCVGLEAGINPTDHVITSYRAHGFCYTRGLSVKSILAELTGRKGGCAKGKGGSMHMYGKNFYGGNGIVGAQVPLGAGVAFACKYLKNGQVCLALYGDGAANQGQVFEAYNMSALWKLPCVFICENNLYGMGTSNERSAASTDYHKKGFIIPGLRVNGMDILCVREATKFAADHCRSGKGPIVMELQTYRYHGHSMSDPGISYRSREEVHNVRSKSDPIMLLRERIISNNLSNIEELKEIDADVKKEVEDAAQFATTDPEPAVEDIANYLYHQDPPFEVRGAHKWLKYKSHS
The assay is described as above.

Results are given in words; binding and its absence hold for the method and conditions named. In cells and extracts the contact can be indirect. Some entries that bind do so weakly or less than the wild type.

B1: PDHA1 (pyruvate dehydrogenase E1 subunit alpha 1) (protein, UniProt P35486 30-390)
chain: FANDATFEIKKCDLHRLEEGPPVTTVLTREDGLKYYRMMQTVRRMELKADQLYKQKIIRGFCHLCDGQEACCVGLEAGINPTDHLITAYRAHGFTFTRGLPVRAILAELTGRRGGCAKGKGGSMHMYAKNFYGGNGIVGAQVPLGAGIALACKYNGKDEVCLTLYGDGAANQGQIFEAYNMAALWKLPCIFICENNRYGMGTSVERAAASTDYYKRGDFIPGLRVDGMDILCVREATKFAAAYCRSGKGPILMELQTYRYHGHSMSDPGVSYRTREEIQEVRSKSDPIMLLKDRMVNSNLASVEELKEIDVEVRKEIEDAAQFATADPEPPLEELGYHIYSSDPPFEVRGANQWIKFKSVS
Turning to B1, the binding result in assay [1] and in assay [2] was “binds” in each case.

B2: PDHB (pyruvate dehydrogenase E1 subunit beta) (protein, UniProt Q9D051 31-359)
chain: T1 sequence
With B2, in assay [2], the binding entry was “binds”.
